Record: PubChem BioAssay AID652259 (Drosophila RNAi Screening Center, 2013)
In all, the deposit lists about 22,000 reagents; this is a random part of those that have a named target and a result. Of all reagents, 233 (1.1%) are marked active. 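Light values are raw, unnormalised plate reads; the ratio scores behind the reporter calls were not deposited.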 Names joined by + are all predicted targets of the reagent. Not given: the amount of reagent, the time to read-out, the dose of the treatment.

Assay: 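Genome-wide hunt for genes that control Wingless pathway activity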 (primary screen)
Cell system: Drosophila clone 8 imaginal disc epithelial cells
Knock-down reagent: long dsRNA against Drosophila genes
Conditions: pathway stimulated by co-transfected Wingless expression plasmid
Read-out: 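Firefly luciferase from a tcf-site Wingless reporter, measured alongside co-transfected Renilla luciferase that tracks transfection; pathway stimulated by a Wingless plasmid; the firefly-to-Renilla ratio is not deposited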
Direction: firefly reporter light: higher = more Wg reporter light, before normalisation; Renilla control light: higher = more transfected or surviving cells
Active means: 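a knock-down is a candidate when at least two out of four statistical tests show it departing from its plate mean; one test alone signals a weak candidate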
Meaning of the calls: active = candidate regulator (raises or lowers reporter); inactive = not a candidate

Tgt (tRNA-guanine transglycosylase) [DRSC00672] | firefly reporter light, replicate 1 = 7272; Renilla control light, replicate 1 = 2517; outcome = inactive
CG15254 [DRSC01870] | firefly reporter light, replicate 1 = 3253; firefly reporter light, replicate 2 = 10721; Renilla control light, replicate 1 = 1602; Renilla control light, replicate 2 = 5185; outcome = inactive
CG15254 [DRSC21765] | firefly reporter light, replicate 1 = 3.13e5; firefly reporter light, replicate 2 = 3.90e5; Renilla control light, replicate 1 = 1.69e5; Renilla control light, replicate 2 = 1.69e5; outcome = inactive
elm (ethanol sensitive with low memory) [DRSC12309] | firefly reporter light, replicate 1 = 6859; Renilla control light, replicate 1 = 2185; outcome = inactive
CG11811 [DRSC09862] | firefly reporter light, replicate 1 = 5617; Renilla control light, replicate 1 = 1936; outcome = inactive
Uba1 (Ubiquitin activating enzyme 1) [DRSC07567] | firefly reporter light, replicate 1 = 11577; Renilla control light, replicate 1 = 2464; outcome = inactive
Amy-p (Amylase proximal) [DRSC06786] | firefly reporter light, replicate 1 = 4809; Renilla control light, replicate 1 = 1817; outcome = inactive
CG10317 [DRSC14229] | firefly reporter light, replicate 1 = 21239; Renilla control light, replicate 1 = 4717; outcome = inactive
CG34194 [DRSC05666] | firefly reporter light, replicate 1 = 17221; Renilla control light, replicate 1 = 10355; outcome = inactive
Ugt36D1 (UDP-glycosyltransferase family 36 member D1) [DRSC02600] | firefly reporter light, replicate 1 = 12213; Renilla control light, replicate 1 = 2104; outcome = inactive
CG8916 [DRSC20120] | firefly reporter light, replicate 1 = 18838; Renilla control light, replicate 1 = 7334; outcome = inactive
CG34195 [DRSC06909] | firefly reporter light, replicate 1 = 4824; Renilla control light, replicate 1 = 2066; outcome = inactive
Gr93c (Gustatory receptor 93c) [DRSC14587] | firefly reporter light, replicate 1 = 34039; Renilla control light, replicate 1 = 5834; outcome = inactive
idc (identity crisis) [DRSC15680] | firefly reporter light, replicate 1 = 1800; firefly reporter light, replicate 2 = 5898; Renilla control light, replicate 1 = 920; Renilla control light, replicate 2 = 1908; outcome = inactive

Copied from above (3 entries):
Amy-p (Amylase proximal) [DRSC06786] | firefly reporter light, replicate 1 = 4809; Renilla control light, replicate 1 = 1817; outcome = inactive
CG10317 [DRSC14229] | firefly reporter light, replicate 1 = 21239; Renilla control light, replicate 1 = 4717; outcome = inactive
CG34194 [DRSC05666] | firefly reporter light, replicate 1 = 17221; Renilla control light, replicate 1 = 10355; outcome = inactive

Further results follow.
CG13036 (retired record) [DRSC09916] | firefly reporter light, replicate 1 = 8512; Renilla control light, replicate 1 = 3228; outcome = inactive
pncr003:2L (retired record) [DRSC22149] | firefly reporter light, replicate 1 = 1.02e6; firefly reporter light, replicate 2 = 9.49e5; Renilla control light, replicate 1 = 2.90e5; Renilla control light, replicate 2 = 3.05e5; outcome = inactive
Got2 (Glutamate oxaloacetate transaminase 2) [DRSC00643] | firefly reporter light, replicate 1 = 8092; Renilla control light, replicate 1 = 4240; outcome = inactive
Prp8 (pre-mRNA processing factor 8) [DRSC07293] | firefly reporter light, replicate 1 = 7443; Renilla control light, replicate 1 = 1185; outcome = inactive
Cp16 (Chorion protein 16) [DRSC11119] | firefly reporter light, replicate 1 = 1171; firefly reporter light, replicate 2 = 9193; Renilla control light, replicate 1 = 912; Renilla control light, replicate 2 = 3767; outcome = inactive
CG11089 + CG31381 [DRSC13690] | firefly reporter light, replicate 1 = 3442; Renilla control light, replicate 1 = 1392; outcome = inactive
CG11089 + CG31381 [DRSC14290] | firefly reporter light, replicate 1 = 1818; firefly reporter light, replicate 2 = 4848; Renilla control light, replicate 1 = 1277; Renilla control light, replicate 2 = 1616; outcome = inactive
CG12278 [DRSC14494] | firefly reporter light, replicate 1 = 12460; Renilla control light, replicate 1 = 3402; outcome = inactive
Med (Medea) [DRSC16737] | firefly reporter light, replicate 1 = 22504; Renilla control light, replicate 1 = 6912; outcome = inactive
CG6891 [DRSC20016] | firefly reporter light, replicate 1 = 5260; firefly reporter light, replicate 2 = 11192; Renilla control light, replicate 1 = 1616; Renilla control light, replicate 2 = 4860; outcome = inactive
Rpn6 (Regulatory particle non-ATPase 6) [DRSC07541] | firefly reporter light, replicate 1 = 8469; Renilla control light, replicate 1 = 2186; outcome = inactive
